Reference: patent US20190125701A1 (priority 2016, published 2019)
For at least one compound, name, drawing or mass did not settle the structure.

What was measured:
mCMV [1] = assay: Plaque size assay; conditions: varying drug concentrations, measured 5 dpi
mCMV [2] = conditions: cells pre-treated with drug prior to mCMV inoculation

Compound: CCCC(CCC)C(=O)O [VPA, valproate]
- CMV plaque size (mCMV [1]): does not attenuate CMV
- effect on mCMV infection (mCMV [2]): increased infection
